These are yes or no findings as the source states them, for the method shown. Binding seen in cells or lysates may run through a third protein.

Chains of the proteins cited; added tags and fusions are not shown. Residues count along the entry.
UniProt Q5S007: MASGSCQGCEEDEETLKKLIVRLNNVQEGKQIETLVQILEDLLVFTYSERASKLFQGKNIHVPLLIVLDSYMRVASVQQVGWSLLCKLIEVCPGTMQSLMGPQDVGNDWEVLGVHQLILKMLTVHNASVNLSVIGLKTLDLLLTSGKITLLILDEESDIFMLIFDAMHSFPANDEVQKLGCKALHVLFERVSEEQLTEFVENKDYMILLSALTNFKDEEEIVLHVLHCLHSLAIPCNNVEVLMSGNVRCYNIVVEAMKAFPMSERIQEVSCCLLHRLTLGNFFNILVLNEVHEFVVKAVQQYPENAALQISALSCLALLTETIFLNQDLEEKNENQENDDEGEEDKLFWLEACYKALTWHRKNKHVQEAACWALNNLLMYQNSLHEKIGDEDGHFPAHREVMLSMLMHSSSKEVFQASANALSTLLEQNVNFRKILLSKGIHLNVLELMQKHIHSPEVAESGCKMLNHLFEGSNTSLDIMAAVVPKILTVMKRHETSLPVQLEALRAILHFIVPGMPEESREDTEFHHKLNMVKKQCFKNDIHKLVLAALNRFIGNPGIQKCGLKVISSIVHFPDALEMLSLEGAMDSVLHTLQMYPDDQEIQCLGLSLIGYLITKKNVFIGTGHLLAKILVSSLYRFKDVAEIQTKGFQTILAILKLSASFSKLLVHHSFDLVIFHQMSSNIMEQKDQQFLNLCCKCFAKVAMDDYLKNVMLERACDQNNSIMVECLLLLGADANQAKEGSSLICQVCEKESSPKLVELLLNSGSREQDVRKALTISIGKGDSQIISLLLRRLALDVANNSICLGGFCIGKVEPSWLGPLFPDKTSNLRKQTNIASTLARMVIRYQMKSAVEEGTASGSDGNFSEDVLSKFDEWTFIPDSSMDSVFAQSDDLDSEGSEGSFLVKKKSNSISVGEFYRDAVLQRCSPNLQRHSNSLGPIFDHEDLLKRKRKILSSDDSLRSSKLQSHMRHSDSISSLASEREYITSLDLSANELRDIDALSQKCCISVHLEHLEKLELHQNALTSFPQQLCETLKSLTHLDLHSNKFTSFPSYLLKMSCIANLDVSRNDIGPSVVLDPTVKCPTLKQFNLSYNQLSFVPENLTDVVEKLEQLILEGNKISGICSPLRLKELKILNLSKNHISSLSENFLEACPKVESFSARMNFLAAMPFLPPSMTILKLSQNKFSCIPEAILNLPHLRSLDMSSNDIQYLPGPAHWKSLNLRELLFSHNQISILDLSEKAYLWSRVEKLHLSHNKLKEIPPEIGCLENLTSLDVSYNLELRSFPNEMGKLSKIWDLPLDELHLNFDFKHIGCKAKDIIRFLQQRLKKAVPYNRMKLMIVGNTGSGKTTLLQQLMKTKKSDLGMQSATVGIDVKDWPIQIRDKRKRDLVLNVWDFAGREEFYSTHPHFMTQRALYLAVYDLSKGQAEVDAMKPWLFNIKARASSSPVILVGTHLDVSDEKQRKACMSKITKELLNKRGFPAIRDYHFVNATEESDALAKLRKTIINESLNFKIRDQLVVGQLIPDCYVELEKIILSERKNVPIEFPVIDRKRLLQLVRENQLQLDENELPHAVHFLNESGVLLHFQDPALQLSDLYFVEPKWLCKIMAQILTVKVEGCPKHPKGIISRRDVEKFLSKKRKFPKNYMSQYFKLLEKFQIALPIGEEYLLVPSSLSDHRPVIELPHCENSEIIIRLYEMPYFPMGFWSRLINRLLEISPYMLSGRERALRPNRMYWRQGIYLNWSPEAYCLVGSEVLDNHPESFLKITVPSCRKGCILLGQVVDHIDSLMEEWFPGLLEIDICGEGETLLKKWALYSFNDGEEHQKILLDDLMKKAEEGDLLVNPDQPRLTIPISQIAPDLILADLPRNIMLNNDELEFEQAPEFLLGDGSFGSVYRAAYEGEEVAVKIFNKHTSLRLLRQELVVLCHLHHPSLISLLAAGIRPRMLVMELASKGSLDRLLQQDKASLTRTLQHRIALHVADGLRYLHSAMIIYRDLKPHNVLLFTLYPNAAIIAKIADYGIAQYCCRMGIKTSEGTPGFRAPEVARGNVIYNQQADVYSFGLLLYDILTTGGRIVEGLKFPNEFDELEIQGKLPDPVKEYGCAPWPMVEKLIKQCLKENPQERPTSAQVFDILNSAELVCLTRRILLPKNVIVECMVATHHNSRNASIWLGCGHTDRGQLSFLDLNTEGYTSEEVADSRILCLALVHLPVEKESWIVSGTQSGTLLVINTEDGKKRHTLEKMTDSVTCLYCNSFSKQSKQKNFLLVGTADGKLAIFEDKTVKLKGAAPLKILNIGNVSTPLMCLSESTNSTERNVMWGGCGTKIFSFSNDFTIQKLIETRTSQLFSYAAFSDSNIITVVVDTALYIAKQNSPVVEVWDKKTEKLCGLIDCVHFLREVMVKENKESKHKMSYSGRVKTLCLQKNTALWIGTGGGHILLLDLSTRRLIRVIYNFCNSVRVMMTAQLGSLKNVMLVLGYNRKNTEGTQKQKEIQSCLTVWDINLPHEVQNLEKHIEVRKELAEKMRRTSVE
UniProt P60520: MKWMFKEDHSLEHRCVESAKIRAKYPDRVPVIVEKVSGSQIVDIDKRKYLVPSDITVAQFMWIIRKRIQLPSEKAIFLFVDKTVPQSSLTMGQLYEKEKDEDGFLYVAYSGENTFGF
UniProt Q9BXW4, residues 1-126: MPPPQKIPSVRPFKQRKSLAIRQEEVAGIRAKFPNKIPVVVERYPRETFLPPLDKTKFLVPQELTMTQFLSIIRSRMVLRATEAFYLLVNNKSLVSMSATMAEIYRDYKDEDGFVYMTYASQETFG

The assay addresses GFP-tagged LRRK2 (leucine-rich repeat kinase 2) (UniProt Q5S007). Nature of the assay: co-IP; HEK293 cells overexpressing 3×FLAG-tagged ATG8 family proteins together with GFP-tagged LRRK2 or p62; lysis in 50 mM Tris HCl pH 7.6, 150 mM NaCl, 0.5% Triton X-100; GFP-Trap beads, 2 h at 4°C; five washes with TBS.
For the substance “3×FLAG-tagged GABARAPL2 (from UniProt P60520 1-117)”, the binding result is “no binding”.
The same measure for “3×FLAG-tagged LC3A (from UniProt Q9H492 1-121)”: “no binding”; for “3×FLAG-tagged LC3C (from UniProt Q9BXW4 1-126)”: “no binding”.

For the origin of these results see paper PMC10791558.
